Data as given in article PMC11149935, “SAFB regulates hippocampal stem cell fate by targeting Drosha to destabilize Nfib mRNA” (eLife, 2024).
These are yes or no findings as the source states them, for the method shown. Binding seen in cells or lysates may run through a third protein. Some entries that bind do so weakly or less than the wild type. Blank lines part the entries; values can stand above or below the molecule they belong to.

Sequences of proteins named here, by UniProt entry; tags and fusion partners are left off. A change or cut given only in a name is not applied to a line headed by its entry.
UniProt D3YXK2: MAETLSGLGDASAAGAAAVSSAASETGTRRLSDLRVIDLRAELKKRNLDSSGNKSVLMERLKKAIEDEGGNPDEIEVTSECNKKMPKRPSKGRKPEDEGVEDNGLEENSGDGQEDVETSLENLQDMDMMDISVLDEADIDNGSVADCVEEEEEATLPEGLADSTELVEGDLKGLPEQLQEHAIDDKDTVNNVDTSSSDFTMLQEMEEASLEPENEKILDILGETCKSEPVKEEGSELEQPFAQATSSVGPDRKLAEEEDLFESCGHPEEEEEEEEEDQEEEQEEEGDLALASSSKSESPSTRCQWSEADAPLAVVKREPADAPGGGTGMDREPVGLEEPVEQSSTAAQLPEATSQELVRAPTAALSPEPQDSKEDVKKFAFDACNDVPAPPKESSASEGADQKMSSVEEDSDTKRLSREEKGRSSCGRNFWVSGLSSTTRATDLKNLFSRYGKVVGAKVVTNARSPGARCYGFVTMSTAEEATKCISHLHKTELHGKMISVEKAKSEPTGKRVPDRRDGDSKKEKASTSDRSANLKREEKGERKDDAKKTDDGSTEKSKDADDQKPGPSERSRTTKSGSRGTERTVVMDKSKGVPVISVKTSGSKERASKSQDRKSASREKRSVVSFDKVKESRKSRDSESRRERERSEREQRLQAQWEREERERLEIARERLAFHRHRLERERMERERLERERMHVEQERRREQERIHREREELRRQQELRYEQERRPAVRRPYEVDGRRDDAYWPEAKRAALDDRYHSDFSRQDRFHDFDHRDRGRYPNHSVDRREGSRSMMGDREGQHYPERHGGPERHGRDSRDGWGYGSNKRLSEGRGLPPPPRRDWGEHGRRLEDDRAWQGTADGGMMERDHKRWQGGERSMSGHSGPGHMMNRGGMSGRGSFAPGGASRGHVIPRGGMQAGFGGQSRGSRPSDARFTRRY

Legend:
[1] = molecular target: T1, Drosha (mouse (endogenous in DG NSCs)) (UniProt Q5HZJ0); test: co-IP; endogenous proteins; 1 mg DG NSC lysate (20 mM HEPES-KOH pH 7.9, 100 mM KCl, 0.5% Triton) treated with or without RNase, anti-Drosha or anti-SAFB antibody overnight at 4°C, magnetic beads, immunoblot; control without antibody
T1 sequence: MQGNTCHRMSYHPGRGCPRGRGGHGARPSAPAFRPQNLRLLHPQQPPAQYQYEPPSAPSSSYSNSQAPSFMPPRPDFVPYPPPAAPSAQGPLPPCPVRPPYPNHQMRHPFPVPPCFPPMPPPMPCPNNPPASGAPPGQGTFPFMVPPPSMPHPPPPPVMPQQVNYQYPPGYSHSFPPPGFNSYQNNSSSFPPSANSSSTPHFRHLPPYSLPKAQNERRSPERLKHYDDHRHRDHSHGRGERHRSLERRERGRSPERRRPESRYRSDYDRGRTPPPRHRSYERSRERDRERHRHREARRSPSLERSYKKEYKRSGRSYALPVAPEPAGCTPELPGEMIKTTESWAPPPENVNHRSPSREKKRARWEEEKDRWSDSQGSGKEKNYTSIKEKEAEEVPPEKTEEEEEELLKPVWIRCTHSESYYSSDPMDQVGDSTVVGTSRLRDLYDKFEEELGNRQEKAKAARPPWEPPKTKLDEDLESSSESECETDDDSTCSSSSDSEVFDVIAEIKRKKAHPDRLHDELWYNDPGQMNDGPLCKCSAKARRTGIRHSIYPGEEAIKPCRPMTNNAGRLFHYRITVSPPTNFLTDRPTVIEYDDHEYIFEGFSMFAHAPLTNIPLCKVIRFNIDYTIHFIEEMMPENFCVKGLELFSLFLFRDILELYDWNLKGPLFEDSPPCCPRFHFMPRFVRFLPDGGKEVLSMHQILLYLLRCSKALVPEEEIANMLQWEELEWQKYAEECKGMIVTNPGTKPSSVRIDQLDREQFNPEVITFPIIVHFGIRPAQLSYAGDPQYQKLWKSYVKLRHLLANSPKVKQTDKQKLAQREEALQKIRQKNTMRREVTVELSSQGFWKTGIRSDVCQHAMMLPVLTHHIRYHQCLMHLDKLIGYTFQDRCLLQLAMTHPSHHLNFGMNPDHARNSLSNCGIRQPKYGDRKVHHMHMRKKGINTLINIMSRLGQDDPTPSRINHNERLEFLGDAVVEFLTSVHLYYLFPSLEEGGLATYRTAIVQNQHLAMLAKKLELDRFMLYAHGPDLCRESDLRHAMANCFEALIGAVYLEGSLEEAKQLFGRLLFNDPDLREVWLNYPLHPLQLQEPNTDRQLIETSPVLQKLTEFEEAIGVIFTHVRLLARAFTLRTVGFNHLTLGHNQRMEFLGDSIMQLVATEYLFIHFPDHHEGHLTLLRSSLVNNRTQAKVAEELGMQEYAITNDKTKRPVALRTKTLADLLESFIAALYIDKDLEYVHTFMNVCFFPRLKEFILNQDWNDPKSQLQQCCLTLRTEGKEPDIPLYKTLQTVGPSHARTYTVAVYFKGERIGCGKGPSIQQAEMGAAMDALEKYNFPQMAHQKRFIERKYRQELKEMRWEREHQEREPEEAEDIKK

[2] = molecular target: scaffold attachment factor B (SAFB) (mouse (endogenous in DG NSCs)) (UniProt D3YXK2); test: as above
[3] = molecular target: T2, Drosha (endogenous, N2A cells) (mouse (endogenous in N2A)) (UniProt Q5HZJ0); test: co-IP; N2A cells with or without esiRNA Safb knock-down; full lysate treated with RNase A and DNase I, IP of endogenous Drosha, immunoblot for SAFB and Drosha in the complexes used for in vitro processing
T2 sequence: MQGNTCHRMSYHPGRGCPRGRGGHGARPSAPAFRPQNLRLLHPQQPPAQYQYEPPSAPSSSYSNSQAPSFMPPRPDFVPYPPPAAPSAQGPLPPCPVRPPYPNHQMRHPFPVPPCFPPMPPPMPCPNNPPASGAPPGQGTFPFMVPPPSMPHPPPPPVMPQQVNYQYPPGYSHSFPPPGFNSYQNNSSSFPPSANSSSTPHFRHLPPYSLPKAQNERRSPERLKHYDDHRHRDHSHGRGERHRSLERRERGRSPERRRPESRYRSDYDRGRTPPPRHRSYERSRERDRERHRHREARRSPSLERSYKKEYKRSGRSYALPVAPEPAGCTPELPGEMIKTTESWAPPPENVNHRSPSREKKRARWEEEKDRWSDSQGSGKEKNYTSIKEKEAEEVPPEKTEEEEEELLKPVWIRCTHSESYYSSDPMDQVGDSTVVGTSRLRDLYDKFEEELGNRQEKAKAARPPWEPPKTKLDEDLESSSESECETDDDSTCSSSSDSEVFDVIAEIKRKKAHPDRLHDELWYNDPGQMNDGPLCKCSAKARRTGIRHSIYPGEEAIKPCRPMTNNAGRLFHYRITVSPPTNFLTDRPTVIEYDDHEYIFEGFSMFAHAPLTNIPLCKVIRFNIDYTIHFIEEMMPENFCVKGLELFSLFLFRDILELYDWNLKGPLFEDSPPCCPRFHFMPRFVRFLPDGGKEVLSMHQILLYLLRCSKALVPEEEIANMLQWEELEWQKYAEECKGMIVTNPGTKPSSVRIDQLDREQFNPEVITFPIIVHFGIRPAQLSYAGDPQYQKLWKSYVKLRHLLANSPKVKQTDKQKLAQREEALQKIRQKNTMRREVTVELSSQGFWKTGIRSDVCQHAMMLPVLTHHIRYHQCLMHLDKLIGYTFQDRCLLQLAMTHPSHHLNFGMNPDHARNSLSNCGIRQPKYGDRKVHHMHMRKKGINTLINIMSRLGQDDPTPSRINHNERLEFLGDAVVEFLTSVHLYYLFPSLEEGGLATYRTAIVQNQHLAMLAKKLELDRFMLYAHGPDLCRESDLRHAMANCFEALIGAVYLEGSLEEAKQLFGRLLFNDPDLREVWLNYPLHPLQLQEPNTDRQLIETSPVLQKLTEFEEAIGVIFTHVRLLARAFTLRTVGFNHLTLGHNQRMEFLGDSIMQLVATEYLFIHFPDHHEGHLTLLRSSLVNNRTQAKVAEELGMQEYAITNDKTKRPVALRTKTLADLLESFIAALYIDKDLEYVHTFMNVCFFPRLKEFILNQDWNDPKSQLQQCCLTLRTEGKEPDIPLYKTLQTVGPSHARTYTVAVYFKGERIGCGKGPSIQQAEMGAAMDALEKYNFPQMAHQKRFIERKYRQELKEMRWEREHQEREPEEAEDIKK

binding [3]: binds
Molecule: SAFB (endogenous, N2A cells) (from UniProt D3YXK2 1-937)

binding [1]: binds
Molecule: scaffold attachment factor B (SAFB) (from UniProt D3YXK2 1-937)

The next lines start with the molecule.

Molecule: PKC-α (from UniProt P20444 1-672)
binding [1]: no binding
binding [2]: no binding

B1: Drosha (enzyme, UniProt Q5HZJ0 1-1373)
chain: MQGNTCHRMSYHPGRGCPRGRGGHGARPSAPAFRPQNLRLLHPQQPPAQYQYEPPSAPSSSYSNSQAPSFMPPRPDFVPYPPPAAPSAQGPLPPCPVRPPYPNHQMRHPFPVPPCFPPMPPPMPCPNNPPASGAPPGQGTFPFMVPPPSMPHPPPPPVMPQQVNYQYPPGYSHSFPPPGFNSYQNNSSSFPPSANSSSTPHFRHLPPYSLPKAQNERRSPERLKHYDDHRHRDHSHGRGERHRSLERRERGRSPERRRPESRYRSDYDRGRTPPPRHRSYERSRERDRERHRHREARRSPSLERSYKKEYKRSGRSYALPVAPEPAGCTPELPGEMIKTTESWAPPPENVNHRSPSREKKRARWEEEKDRWSDSQGSGKEKNYTSIKEKEAEEVPPEKTEEEEEELLKPVWIRCTHSESYYSSDPMDQVGDSTVVGTSRLRDLYDKFEEELGNRQEKAKAARPPWEPPKTKLDEDLESSSESECETDDDSTCSSSSDSEVFDVIAEIKRKKAHPDRLHDELWYNDPGQMNDGPLCKCSAKARRTGIRHSIYPGEEAIKPCRPMTNNAGRLFHYRITVSPPTNFLTDRPTVIEYDDHEYIFEGFSMFAHAPLTNIPLCKVIRFNIDYTIHFIEEMMPENFCVKGLELFSLFLFRDILELYDWNLKGPLFEDSPPCCPRFHFMPRFVRFLPDGGKEVLSMHQILLYLLRCSKALVPEEEIANMLQWEELEWQKYAEECKGMIVTNPGTKPSSVRIDQLDREQFNPEVITFPIIVHFGIRPAQLSYAGDPQYQKLWKSYVKLRHLLANSPKVKQTDKQKLAQREEALQKIRQKNTMRREVTVELSSQGFWKTGIRSDVCQHAMMLPVLTHHIRYHQCLMHLDKLIGYTFQDRCLLQLAMTHPSHHLNFGMNPDHARNSLSNCGIRQPKYGDRKVHHMHMRKKGINTLINIMSRLGQDDPTPSRINHNERLEFLGDAVVEFLTSVHLYYLFPSLEEGGLATYRTAIVQNQHLAMLAKKLELDRFMLYAHGPDLCRESDLRHAMANCFEALIGAVYLEGSLEEAKQLFGRLLFNDPDLREVWLNYPLHPLQLQEPNTDRQLIETSPVLQKLTEFEEAIGVIFTHVRLLARAFTLRTVGFNHLTLGHNQRMEFLGDSIMQLVATEYLFIHFPDHHEGHLTLLRSSLVNNRTQAKVAEELGMQEYAITNDKTKRPVALRTKTLADLLESFIAALYIDKDLEYVHTFMNVCFFPRLKEFILNQDWNDPKSQLQQCCLTLRTEGKEPDIPLYKTLQTVGPSHARTYTVAVYFKGERIGCGKGPSIQQAEMGAAMDALEKYNFPQMAHQKRFIERKYRQELKEMRWEREHQEREPEEAEDIKK
binding [2]: binds
